PMC4043117

The chains behind the UniProt entries cited, without tags or fusion partners. Where a name states a change or a piece, a line headed by the entry shows the natural chain unless it says otherwise.
UniProt O94682: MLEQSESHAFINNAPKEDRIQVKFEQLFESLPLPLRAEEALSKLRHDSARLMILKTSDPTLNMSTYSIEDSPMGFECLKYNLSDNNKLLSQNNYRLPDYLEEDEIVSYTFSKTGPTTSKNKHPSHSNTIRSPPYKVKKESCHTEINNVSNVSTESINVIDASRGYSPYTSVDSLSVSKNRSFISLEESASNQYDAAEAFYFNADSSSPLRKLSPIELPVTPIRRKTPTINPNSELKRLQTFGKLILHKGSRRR
UniProt O42995: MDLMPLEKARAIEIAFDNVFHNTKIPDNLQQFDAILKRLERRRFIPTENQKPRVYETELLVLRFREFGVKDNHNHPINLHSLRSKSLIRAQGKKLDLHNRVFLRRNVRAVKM

What was measured:
Mis18-Myc (S. pombe) = molecular target: T1, Mis18-Myc (S. pombe) (UniProt Q9P802); experiment: affinity purification with mass spectrometry; 5 g pulverized S. pombe cells expressing Myc-tagged Mis16 or Mis18; anti-Myc 9E10 on Protein G Dynabeads; untagged control; on-bead tryptic digestion, LC-MS/MS; three replicates
T1 sequence: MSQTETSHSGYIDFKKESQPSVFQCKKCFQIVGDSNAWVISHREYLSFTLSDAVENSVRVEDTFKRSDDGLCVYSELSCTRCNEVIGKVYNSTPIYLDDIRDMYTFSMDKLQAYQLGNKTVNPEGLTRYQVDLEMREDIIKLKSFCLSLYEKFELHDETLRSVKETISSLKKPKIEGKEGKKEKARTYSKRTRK

Mis16-Myc (S. pombe) = molecular target: T2, Mis16-Myc (S. pombe) (UniProt O94244); experiment: as above
T2 sequence: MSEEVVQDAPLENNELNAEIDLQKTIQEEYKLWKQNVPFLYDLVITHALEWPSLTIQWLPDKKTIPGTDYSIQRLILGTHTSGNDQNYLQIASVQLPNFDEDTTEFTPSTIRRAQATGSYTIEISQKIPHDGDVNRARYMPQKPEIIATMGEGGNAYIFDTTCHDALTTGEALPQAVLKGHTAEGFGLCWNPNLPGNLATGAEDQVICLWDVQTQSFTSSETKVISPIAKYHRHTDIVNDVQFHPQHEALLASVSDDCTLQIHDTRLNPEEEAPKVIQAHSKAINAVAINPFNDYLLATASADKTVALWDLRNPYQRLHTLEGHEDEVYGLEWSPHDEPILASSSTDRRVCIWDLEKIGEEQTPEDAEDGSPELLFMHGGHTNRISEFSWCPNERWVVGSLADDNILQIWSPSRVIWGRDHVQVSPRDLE

Eic2-GFP (S. pombe) = Eic2-GFP (S. pombe) (UniProt O94682); experiment: affinity purification with mass spectrometry; 5 g pulverized S. pombe cells expressing GFP-tagged Eic1 or Eic2; anti-GFP A11122 on Protein G Dynabeads; untagged control; on-bead tryptic digestion, LC-MS/MS; three replicates
Eic1-GFP (S. pombe) = Eic1-GFP (S. pombe) (UniProt O42995); experiment: as above
[1] = molecular target: T3, Mis16-Myc (S. pombe), O94244; experiment: affinity purification with mass spectrometry; 5 g pulverized S. pombe cells expressing Myc-tagged Mis16 or Mis18; anti-Myc 9E10 on Protein G Dynabeads; untagged control; on-bead tryptic digestion, LC-MS/MS; three replicates; details: remark: other sources report otherwise
T3 chain: T2 sequence

Hat1-HA (S. pombe) = molecular target: T4, Hat1-HA (S. pombe) (UniProt Q9UTM7); experiment: affinity purification with mass spectrometry; Hat1-HA immunoprecipitates from S. pombe subjected to LC/MS-MS
T4 sequence: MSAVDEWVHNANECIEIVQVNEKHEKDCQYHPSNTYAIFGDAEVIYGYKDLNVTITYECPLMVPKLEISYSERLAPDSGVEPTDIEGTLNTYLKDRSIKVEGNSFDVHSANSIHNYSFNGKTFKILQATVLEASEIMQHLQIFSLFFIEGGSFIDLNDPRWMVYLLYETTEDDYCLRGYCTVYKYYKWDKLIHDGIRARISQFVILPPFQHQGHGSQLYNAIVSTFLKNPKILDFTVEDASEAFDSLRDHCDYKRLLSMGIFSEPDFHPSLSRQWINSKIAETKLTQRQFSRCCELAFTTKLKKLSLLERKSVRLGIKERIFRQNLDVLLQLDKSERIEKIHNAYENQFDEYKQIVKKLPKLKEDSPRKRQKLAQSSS

Eic2 (Eighteen Interacting Centromere protein 2) (from UniProt O94682)
binding (Mis18-Myc (S. pombe)): binds

Eic1 (Eighteen Interacting Centromere protein 1) (from UniProt O42995)
binding (Mis16-Myc (S. pombe)): binds
binding (Mis18-Myc (S. pombe)): binds
binding (Eic2-GFP (S. pombe)): binds

B1: Cnl2^Nkp2 (protein, UniProt O13952 1-188)
chain: MNMEEQILNDYLLSQGRLQSIISLEQWRQLFPQRYREDPLIERLYEYCTQQRQKRLAKLRANIHLESQVIGKSRIDRMLATNVEKLQTVSHASTLHDVEEFYTSHSAKPLDISEINERLSEAVQSAYTKLNEEKERCTQLTLKMNSQIASLSDFQWSKEPNVDESIHLVESLIESLEKAAPSAIEELD
binding (Eic1-GFP (S. pombe)): binds

B2: Mal2^CENP-O/Mcm21 (protein, UniProt Q10290 1-303)
chain: MDDEEGNATLIDEISVLEARRDVLLDELKSLDNATLSDLVQKPELSKNLSVNNEFLKETPLNQPALHYDRLSGISFFQPNDPEELSRKTLLVKNKKTGAIETAPSIPLLGVRFDIMLNPVNIGFTNLSENPISSASGMDEELEGGNRFDVPYYIIFRVFHDSFALYKYTIPSFLNIQEWADEYLTGKNPERFRIFLWKVDKLLTAYICRKNALLQINKSLTIDGTNISANLSCTHLVIQIPKVIQATLVCSSESTRVVKSRIYQYSDENWKRDHRLELSLLDNKRWVNILVSHLTAPESHASL
binding (Eic1-GFP (S. pombe)): binds

B3: Mis18, Q9P802 1-194 (protein)
chain: T1 sequence
binding [1]: binds

B4: histone H4 acetyltransferase Hat1 (protein, UniProt Q9UTM7 1-378)
chain: T4 sequence
binding (Mis16-Myc (S. pombe)): binds

B5: Mis16^RbAp46/48/Hat2 (protein, UniProt O94244 1-430)
chain: T2 sequence
binding (Hat1-HA (S. pombe)): binds

B6: Mis18 (protein, UniProt Q9P802 1-194)
chain: T1 sequence
binding (Eic2-GFP (S. pombe)): binds

B7: Fta7^CENP-Q/Okp1 (protein, UniProt O74844 1-244)
chain: MEMKRRVRAVRRDQIQKRWRPLEDKQRQEIIIIFRTCSRLVLNTIKSETRKSLAEEWFMNILLKIEAPLRNLPVPRKRKESILFSQLLSSNMQLEQQLYSDLDHINVLQQELKVETARLENEQKSYEEMKQNMAINNSRLADLKSKLHPYLKKGLKISHDNFSDSNDFSFQKKLNTEDSNTSKTSTLDMYKEKLKPFTKTMQIHANKTVQLSQTIQKATLLLQRLNNTKNIGLNKSSKLKIKNI
binding (Eic1-GFP (S. pombe)): binds

These are yes or no findings as the source states them, for the method shown. Binding seen in cells or lysates may run through a third protein. Here binding means that the protein was enriched with, or labelled near, the bait; the list need not be complete. For some assays here: Sequences can lack the tags named with a protein.
